The supplement of paper PMC12823440, “Inhibitors supercharge kinase turnover through native proteolytic circuits” (Nature, 2025)
The list shows a part of the results. Hit calls seldom repeat between salt and free forms of one compound.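 Kinases, fused to nanoluciferase, were expressed in K562 cells; luminescence was measured every 4 h from 2 to 18 h as percent of control (DMSO = 100%, positive control = 0%). A time point is decreased if signal falls significantly (2 sigma). Hits were called by the authors by a rule that is not shown; the count of time points alone does not decide it.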

By UniProt entry, the sequences of proteins in these tests, tags left out. Where a name states a change or a piece, a line headed by the entry shows the natural chain unless it says otherwise.
UniProt P21860, whole entry: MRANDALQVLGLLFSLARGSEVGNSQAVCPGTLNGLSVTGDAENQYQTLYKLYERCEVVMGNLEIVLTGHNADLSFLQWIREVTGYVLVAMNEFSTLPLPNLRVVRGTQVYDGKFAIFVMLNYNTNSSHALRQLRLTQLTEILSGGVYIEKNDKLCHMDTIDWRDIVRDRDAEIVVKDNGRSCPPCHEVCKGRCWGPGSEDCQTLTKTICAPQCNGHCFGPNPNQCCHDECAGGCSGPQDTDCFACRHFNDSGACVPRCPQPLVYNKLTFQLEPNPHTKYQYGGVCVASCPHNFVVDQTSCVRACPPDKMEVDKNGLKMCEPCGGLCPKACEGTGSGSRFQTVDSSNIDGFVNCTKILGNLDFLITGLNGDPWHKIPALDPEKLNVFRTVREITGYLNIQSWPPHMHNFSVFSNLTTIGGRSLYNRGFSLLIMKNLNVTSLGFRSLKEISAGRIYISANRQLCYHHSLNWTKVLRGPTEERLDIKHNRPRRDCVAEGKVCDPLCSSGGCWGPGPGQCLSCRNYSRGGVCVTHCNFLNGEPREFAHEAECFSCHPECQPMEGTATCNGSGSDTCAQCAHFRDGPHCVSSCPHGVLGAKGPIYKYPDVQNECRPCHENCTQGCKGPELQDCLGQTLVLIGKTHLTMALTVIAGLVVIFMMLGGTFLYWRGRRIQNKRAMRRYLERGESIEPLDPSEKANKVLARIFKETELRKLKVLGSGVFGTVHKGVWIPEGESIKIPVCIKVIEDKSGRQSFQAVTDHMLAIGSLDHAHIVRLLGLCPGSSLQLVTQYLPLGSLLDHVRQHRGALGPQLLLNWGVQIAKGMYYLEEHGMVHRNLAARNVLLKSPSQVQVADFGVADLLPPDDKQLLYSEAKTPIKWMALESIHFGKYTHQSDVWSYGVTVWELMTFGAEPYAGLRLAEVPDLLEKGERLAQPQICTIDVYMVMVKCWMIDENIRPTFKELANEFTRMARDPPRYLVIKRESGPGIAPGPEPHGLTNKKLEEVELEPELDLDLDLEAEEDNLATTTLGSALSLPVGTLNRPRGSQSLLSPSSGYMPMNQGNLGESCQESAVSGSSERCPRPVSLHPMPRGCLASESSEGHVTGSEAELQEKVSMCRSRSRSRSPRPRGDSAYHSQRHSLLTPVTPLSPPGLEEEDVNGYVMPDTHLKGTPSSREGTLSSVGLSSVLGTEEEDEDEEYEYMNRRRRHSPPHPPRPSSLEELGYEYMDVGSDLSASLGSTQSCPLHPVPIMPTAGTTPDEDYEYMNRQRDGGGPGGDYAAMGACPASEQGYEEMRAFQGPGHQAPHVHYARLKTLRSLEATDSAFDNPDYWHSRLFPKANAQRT
UniProt Q15303, whole entry R711C: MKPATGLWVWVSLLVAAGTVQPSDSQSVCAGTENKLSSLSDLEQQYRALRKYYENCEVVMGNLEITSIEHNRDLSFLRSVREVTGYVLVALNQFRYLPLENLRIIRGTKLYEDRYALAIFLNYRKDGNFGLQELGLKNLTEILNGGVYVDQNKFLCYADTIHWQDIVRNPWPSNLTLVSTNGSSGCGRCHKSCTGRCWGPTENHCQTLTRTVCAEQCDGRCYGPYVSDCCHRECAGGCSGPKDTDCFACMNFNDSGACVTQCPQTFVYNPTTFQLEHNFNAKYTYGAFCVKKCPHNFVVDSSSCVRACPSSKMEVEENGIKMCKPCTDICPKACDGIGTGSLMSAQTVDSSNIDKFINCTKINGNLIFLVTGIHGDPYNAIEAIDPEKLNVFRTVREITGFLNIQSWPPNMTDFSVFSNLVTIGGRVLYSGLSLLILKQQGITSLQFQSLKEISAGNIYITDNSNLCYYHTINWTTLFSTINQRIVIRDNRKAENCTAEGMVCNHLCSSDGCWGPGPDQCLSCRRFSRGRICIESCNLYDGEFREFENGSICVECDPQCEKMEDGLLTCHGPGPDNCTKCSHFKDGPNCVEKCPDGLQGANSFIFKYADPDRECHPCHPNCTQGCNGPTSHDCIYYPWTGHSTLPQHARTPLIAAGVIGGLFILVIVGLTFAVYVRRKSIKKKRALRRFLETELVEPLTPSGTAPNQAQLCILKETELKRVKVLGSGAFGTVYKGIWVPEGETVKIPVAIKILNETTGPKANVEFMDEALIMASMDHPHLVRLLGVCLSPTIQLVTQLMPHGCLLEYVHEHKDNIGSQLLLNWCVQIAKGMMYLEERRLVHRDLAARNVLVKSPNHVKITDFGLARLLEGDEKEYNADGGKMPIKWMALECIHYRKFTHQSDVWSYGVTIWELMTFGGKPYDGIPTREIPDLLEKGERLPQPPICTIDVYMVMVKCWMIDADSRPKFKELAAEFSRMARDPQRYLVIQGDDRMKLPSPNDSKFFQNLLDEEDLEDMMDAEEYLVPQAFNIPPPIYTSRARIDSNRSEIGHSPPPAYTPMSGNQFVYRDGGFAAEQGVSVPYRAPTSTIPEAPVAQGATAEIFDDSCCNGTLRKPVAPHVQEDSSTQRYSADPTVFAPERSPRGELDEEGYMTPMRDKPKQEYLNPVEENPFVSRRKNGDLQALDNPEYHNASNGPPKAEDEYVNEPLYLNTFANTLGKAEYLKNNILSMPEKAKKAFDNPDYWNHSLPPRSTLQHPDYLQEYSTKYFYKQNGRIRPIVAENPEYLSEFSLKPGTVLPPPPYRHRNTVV
UniProt P11362, whole entry, looked up: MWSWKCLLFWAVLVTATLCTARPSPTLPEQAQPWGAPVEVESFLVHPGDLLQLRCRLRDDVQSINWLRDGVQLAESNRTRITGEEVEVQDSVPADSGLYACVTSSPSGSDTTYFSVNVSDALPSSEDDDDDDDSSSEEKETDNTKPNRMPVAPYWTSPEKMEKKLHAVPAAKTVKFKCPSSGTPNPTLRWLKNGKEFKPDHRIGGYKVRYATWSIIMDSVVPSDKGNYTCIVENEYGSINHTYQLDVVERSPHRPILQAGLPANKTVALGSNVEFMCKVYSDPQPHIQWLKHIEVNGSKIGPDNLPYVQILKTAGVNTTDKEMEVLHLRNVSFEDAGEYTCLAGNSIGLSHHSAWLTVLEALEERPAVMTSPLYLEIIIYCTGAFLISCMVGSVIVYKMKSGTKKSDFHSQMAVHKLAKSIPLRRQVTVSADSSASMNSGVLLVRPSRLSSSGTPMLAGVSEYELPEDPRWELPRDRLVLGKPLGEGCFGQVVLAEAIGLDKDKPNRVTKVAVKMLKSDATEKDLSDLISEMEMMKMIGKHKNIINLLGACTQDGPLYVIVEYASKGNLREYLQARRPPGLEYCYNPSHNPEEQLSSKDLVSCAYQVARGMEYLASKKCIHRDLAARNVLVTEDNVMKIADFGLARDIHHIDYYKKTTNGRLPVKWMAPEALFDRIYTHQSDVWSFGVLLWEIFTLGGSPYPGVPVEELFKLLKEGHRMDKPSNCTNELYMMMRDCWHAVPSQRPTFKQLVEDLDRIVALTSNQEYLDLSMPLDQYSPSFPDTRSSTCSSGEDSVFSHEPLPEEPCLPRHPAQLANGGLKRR
UniProt P22607, whole entry, looked up: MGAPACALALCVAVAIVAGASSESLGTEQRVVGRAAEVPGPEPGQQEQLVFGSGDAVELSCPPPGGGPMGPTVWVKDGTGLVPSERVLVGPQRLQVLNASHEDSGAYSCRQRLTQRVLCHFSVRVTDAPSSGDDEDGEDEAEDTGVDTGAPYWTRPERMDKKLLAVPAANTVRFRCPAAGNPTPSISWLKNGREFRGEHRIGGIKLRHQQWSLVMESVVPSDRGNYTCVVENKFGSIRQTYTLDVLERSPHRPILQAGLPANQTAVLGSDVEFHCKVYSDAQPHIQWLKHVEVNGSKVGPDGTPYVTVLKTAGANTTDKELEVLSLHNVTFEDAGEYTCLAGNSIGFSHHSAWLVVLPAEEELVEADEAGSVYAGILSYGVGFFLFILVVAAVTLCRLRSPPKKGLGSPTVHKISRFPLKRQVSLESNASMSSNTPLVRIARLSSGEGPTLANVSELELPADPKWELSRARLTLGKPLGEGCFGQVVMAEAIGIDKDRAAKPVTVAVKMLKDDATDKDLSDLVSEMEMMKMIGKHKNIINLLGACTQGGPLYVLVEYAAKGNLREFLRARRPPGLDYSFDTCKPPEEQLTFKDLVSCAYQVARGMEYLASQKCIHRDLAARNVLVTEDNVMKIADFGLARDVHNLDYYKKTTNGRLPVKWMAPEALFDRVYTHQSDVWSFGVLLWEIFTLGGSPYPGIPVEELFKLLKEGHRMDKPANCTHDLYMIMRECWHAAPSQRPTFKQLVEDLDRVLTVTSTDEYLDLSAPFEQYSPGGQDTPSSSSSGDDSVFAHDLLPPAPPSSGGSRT
UniProt P36888, whole entry: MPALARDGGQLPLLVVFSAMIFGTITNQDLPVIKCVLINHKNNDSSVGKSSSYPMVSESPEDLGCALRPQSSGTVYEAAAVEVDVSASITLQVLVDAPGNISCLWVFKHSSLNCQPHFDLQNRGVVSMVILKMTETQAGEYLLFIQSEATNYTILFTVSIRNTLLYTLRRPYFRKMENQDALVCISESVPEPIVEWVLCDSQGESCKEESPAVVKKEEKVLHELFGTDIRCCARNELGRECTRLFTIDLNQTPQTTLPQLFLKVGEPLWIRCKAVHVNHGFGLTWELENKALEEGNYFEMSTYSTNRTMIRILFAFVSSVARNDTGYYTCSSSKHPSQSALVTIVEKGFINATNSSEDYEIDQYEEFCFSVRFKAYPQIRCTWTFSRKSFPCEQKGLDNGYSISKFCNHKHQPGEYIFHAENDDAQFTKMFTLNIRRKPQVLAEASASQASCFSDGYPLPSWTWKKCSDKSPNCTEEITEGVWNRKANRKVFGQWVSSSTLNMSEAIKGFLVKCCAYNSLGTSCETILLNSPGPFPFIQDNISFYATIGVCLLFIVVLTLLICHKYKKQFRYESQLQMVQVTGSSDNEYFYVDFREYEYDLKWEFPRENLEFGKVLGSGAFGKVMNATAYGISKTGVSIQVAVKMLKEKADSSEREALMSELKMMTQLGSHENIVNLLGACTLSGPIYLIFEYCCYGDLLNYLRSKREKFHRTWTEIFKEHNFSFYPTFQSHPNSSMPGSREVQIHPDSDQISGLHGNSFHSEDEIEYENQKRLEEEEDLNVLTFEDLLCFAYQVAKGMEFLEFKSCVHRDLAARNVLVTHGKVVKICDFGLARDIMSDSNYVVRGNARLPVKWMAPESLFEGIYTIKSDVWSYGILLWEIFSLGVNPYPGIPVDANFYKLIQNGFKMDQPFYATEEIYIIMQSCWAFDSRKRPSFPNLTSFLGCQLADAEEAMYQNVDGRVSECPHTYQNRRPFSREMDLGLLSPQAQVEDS
UniProt P14616: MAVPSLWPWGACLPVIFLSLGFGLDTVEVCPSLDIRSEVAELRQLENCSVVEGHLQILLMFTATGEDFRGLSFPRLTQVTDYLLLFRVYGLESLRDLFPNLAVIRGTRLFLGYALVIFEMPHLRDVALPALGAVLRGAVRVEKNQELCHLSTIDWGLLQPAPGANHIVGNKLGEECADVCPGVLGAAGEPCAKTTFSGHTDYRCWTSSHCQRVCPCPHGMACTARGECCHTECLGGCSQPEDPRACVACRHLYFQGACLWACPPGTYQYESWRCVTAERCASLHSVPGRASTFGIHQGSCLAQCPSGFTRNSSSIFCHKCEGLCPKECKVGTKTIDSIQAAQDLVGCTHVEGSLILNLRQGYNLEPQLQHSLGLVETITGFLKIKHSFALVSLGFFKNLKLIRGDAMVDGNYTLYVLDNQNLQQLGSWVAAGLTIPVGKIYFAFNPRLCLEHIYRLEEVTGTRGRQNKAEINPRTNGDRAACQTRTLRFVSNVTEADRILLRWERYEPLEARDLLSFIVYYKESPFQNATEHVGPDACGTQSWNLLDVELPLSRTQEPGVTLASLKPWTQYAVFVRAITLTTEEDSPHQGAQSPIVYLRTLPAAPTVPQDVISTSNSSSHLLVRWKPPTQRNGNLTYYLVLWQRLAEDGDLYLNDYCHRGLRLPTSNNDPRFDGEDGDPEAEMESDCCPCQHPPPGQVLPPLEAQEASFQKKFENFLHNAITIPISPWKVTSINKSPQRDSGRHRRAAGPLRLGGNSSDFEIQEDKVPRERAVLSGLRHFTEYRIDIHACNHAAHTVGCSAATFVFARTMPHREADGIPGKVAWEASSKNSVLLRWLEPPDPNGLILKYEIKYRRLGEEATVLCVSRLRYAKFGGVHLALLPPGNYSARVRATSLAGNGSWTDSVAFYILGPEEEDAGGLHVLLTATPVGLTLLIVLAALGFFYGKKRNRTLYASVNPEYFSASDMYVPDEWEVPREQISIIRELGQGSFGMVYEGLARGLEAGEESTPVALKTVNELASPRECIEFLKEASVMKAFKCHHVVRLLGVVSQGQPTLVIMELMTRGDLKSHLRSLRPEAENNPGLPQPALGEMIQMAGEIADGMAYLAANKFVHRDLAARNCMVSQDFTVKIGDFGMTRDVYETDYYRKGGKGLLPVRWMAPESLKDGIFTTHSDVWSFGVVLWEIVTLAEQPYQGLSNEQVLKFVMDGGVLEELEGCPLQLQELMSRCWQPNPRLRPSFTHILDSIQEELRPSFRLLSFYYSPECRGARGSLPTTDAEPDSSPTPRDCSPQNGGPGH

Key:
Assay in all cases: kinase-Nluc reporter destabilization hit call (1 = scored as downregulated) (binary); higher = compound decreases kinase abundance
Conditions in all cases: K562; 2-18 h
EGFR = EGFR (UniProt P00533)
EGFR_G719S = EGFR_G719S (UniProt P00533)
EGFR_G719S_T790M = EGFR_G719S_T790M (UniProt P00533)
EGFR_L718V = EGFR_L718V (UniProt P00533)
EGFR_L858R = EGFR_L858R (UniProt P00533)
EGFR_L861Q = EGFR_L861Q (UniProt P00533)
EGFR_T790M = EGFR_T790M (UniProt P00533)
EPHA2 = EPHA2 (UniProt P29317)
ERBB3 = ERBB3 (UniProt P21860)
[1] = molecular target: ERBB4_R711C (clone: ERBB4_mut) (UniProt Q15303)
ERN1 = ERN1 (UniProt O75460)
FGFR1 = FGFR1 (UniProt P11362)
FGFR2 = FGFR2 (UniProt P21802)
FGFR3 = FGFR3 (UniProt P22607)
FGR = FGR (UniProt P09769)
FLT3 = FLT3 (UniProt P36888)
FYN = FYN (UniProt P06241)
GSK3A = GSK3A (UniProt P49840)
HER2 = HER2 (UniProt P04626)
INSRR = INSRR (UniProt P14616)

Measured: kinase-Nluc reporter destabilization hit call

COc1cc(Nc2ccnc3ccc(Br)cc23)cc(OC)c1OC (2.5 µM)
inactive: EGFR 0 | EGFR_G719S 0 | EGFR_G719S_T790M 0 | EGFR_L718V 0 | EGFR_L858R 0 | EGFR_L861Q 0 | EGFR_T790M 0 | EPHA2 = 0 | ERBB3 = 0 | [1] 0 | ERN1 = 0 | FGFR1 = 0 | FGFR2 = 0 | FGFR3 = 0 | FGR 0 | FLT3 = 0 | FYN 0 | GSK3A 0 | HER2 = 0 | INSRR 0

O=c1cc(-c2ccc(O[C@@H]3O[C@H](CO)[C@@H](O)[C@H](O)[C@H]3O)cc2)oc2cc(O)c([C@@H]3O[C@H](CO)[C@@H](O)[C@H](O)[C@H]3O[C@@H]3OC[C@H](O)[C@H](O)[C@H]3O)c(O)c12 [Vaccarin] (10 µM)
inactive: EGFR 0 | EGFR_G719S 0 | EGFR_G719S_T790M 0 | EGFR_L718V 0 | EGFR_L858R 0 | EGFR_L861Q 0 | EGFR_T790M 0 | EPHA2 = 0 | ERBB3 = 0 | [1] 0 | ERN1 = 0 | FGFR1 = 0 | FGFR2 = 0 | FGFR3 = 0 | FGR 0 | FLT3 = 0 | FYN 0 | GSK3A 0 | HER2 = 0 | INSRR 0

NCCNS(=O)(=O)c1ccc(Cl)c2ccncc12 [CKI-7 (free base)] (10 µM)
inactive: EGFR 0 | EGFR_G719S 0 | EGFR_G719S_T790M 0 | EGFR_L718V 0 | EGFR_L858R 0 | EGFR_L861Q 0 | EGFR_T790M 0 | EPHA2 = 0 | ERBB3 = 0 | [1] 0 | ERN1 = 0 | FGFR1 = 0 | FGFR2 = 0 | FGFR3 = 0 | FGR 0 | FLT3 = 0 | FYN 0 | GSK3A 0 | HER2 = 0 | INSRR 0

O=C1NC(=O)C(Cc2c[nH]c3c(Cl)cccc23)N1 (stereo not given) [Necroptosis-IN-1] (10 µM)
inactive: EGFR 0 | EGFR_G719S 0 | EGFR_G719S_T790M 0 | EGFR_L718V 0 | EGFR_L858R 0 | EGFR_L861Q 0 | EGFR_T790M 0 | EPHA2 = 0 | ERBB3 = 0 | [1] 0 | ERN1 = 0 | FGFR1 = 0 | FGFR2 = 0 | FGFR3 = 0 | FGR 0 | FLT3 = 0 | FYN 0 | GSK3A 0 | HER2 = 0 | INSRR 0

CCc1c(C(=O)NNC(=O)[C@H](O)c2cc(F)cc(F)c2)ccc(O)c1C (10 µM)
inactive: EGFR 0 | EGFR_G719S 0 | EGFR_G719S_T790M 0 | EGFR_L718V 0 | EGFR_L858R 0 | EGFR_L861Q 0 | EGFR_T790M 0 | EPHA2 = 0 | ERBB3 = 0 | [1] 0 | ERN1 = 0 | FGFR1 = 0 | FGFR2 = 0 | FGFR3 = 0 | FGR 0 | FLT3 = 0 | FYN 0 | GSK3A 0 | HER2 = 0 | INSRR 0

O=C(Nc1ccc(Cl)cc1)C1CN(C(=O)c2cccc(-c3ccco3)c2)CC(F)(F)C1 (stereo not given) (2.5 µM)
inactive: EGFR 0 | EGFR_G719S 0 | EGFR_G719S_T790M 0 | EGFR_L718V 0 | EGFR_L858R 0 | EGFR_L861Q 0 | EGFR_T790M 0 | EPHA2 = 0 | ERBB3 = 0 | [1] 0 | ERN1 = 0 | FGFR1 = 0 | FGFR2 = 0 | FGFR3 = 0 | FGR 0 | FLT3 = 0 | FYN 0 | GSK3A 0 | HER2 = 0 | INSRR 0

Fc1ccc(-c2nc3n(c2-c2ccncc2)CCS3)cc1 (10 µM)
inactive: EGFR 0 | EGFR_G719S 0 | EGFR_G719S_T790M 0 | EGFR_L718V 0 | EGFR_L858R 0 | EGFR_L861Q 0 | EGFR_T790M 0 | EPHA2 = 0 | ERBB3 = 0 | [1] 0 | ERN1 = 0 | FGFR1 = 0 | FGFR2 = 0 | FGFR3 = 0 | FGR 0 | FLT3 = 0 | FYN 0 | GSK3A 0 | HER2 = 0 | INSRR 0

CN(C[C@@H]1COCCO1)S(=O)(=O)Nc1ccc2ccc3ncc(-c4cnn(C)c4)cc3c(=O)c2c1 (2.5 µM)
inactive: EGFR 0 | EGFR_G719S 0 | EGFR_G719S_T790M 0 | EGFR_L718V 0 | EGFR_L858R 0 | EGFR_L861Q 0 | EGFR_T790M 0 | EPHA2 = 0 | ERBB3 = 0 | [1] 0 | ERN1 = 0 | FGFR1 = 0 | FGFR2 = 0 | FGFR3 = 0 | FGR 0 | FLT3 = 0 | FYN 0 | GSK3A 0 | HER2 = 0 | INSRR 0

Quoted at random: 2 entries already listed.
CN(C[C@@H]1COCCO1)S(=O)(=O)Nc1ccc2ccc3ncc(-c4cnn(C)c4)cc3c(=O)c2c1 (2.5 µM)
inactive: EGFR 0 | EGFR_G719S 0 | EGFR_G719S_T790M 0 | EGFR_L718V 0 | EGFR_L858R 0 | EGFR_L861Q 0 | EGFR_T790M 0 | EPHA2 = 0 | ERBB3 = 0 | [1] 0 | ERN1 = 0 | FGFR1 = 0 | FGFR2 = 0 | FGFR3 = 0 | FGR 0 | FLT3 = 0 | FYN 0 | GSK3A 0 | HER2 = 0 | INSRR 0

CCc1c(C(=O)NNC(=O)[C@H](O)c2cc(F)cc(F)c2)ccc(O)c1C (10 µM)
inactive: EGFR 0 | EGFR_G719S 0 | EGFR_G719S_T790M 0 | EGFR_L718V 0 | EGFR_L858R 0 | EGFR_L861Q 0 | EGFR_T790M 0 | EPHA2 = 0 | ERBB3 = 0 | [1] 0 | ERN1 = 0 | FGFR1 = 0 | FGFR2 = 0 | FGFR3 = 0 | FGR 0 | FLT3 = 0 | FYN 0 | GSK3A 0 | HER2 = 0 | INSRR 0

Further structures follow:

CC(C)n1c(CO)nc2c(F)cc(-c3nc(Nc4ccc(CN5CCNCC5)cn4)ncc3F)cc21 (10 µM)
inactive: EGFR 0 | EGFR_G719S 0 | EGFR_G719S_T790M 0 | EGFR_L718V 0 | EGFR_L858R 0 | EGFR_L861Q 0 | EGFR_T790M 0 | EPHA2 = 0 | ERBB3 = 0 | [1] 0 | ERN1 = 0 | FGFR1 = 0 | FGFR2 = 0 | FGFR3 = 0 | FGR 0 | FLT3 = 0 | FYN 0 | GSK3A 0 | HER2 = 0 | INSRR 0

Cc1cc(N2CCOCC2)ccc1Nc1nc(NC2CCCCC2)c2[nH]cnc2n1 (10 µM)
inactive: EGFR 0 | EGFR_G719S 0 | EGFR_G719S_T790M 0 | EGFR_L718V 0 | EGFR_L858R 0 | EGFR_L861Q 0 | EGFR_T790M 0 | EPHA2 = 0 | ERBB3 = 0 | [1] 0 | ERN1 = 0 | FGFR1 = 0 | FGFR2 = 0 | FGFR3 = 0 | FGR 0 | FLT3 = 0 | FYN 0 | GSK3A 0 | HER2 = 0 | INSRR 0

Nc1nccc(Oc2ccc3c(C(=O)Nc4cccc(C(F)(F)F)c4)cccc3c2)n1 (10 µM)
inactive: EGFR 0 | EGFR_G719S 0 | EGFR_G719S_T790M 0 | EGFR_L718V 0 | EGFR_L858R 0 | EGFR_L861Q 0 | EGFR_T790M 0 | EPHA2 = 0 | ERBB3 = 0 | [1] 0 | ERN1 = 0 | FGFR1 = 0 | FGFR2 = 0 | FGFR3 = 0 | FGR 0 | FLT3 = 0 | FYN 0 | GSK3A 0 | HER2 = 0 | INSRR 0

CCCCNc1ncc2c(-c3ccc(F)cc3)nn(CC3CCC(N)CC3)c2n1 (stereo not given) (2.5 µM)
inactive: EGFR 0 | EGFR_G719S 0 | EGFR_G719S_T790M 0 | EGFR_L718V 0 | EGFR_L858R 0 | EGFR_L861Q 0 | EGFR_T790M 0 | EPHA2 = 0 | ERBB3 = 0 | [1] 0 | ERN1 = 0 | FGFR1 = 0 | FGFR2 = 0 | FGFR3 = 0 | FGR 0 | FLT3 = 0 | FYN 0 | GSK3A 0 | HER2 = 0 | INSRR 0

CC(C)n1cnc2c(Nc3cccc(Cl)c3)nc(N[C@H]3CCCC[C@@H]3N)nc21 (2.5 µM)
inactive: EGFR 0 | EGFR_G719S 0 | EGFR_G719S_T790M 0 | EGFR_L718V 0 | EGFR_L858R 0 | EGFR_L861Q 0 | EGFR_T790M 0 | EPHA2 = 0 | ERBB3 = 0 | [1] 0 | ERN1 = 0 | FGFR1 = 0 | FGFR2 = 0 | FGFR3 = 0 | FGR 0 | FLT3 = 0 | FYN 0 | GSK3A 0 | HER2 = 0 | INSRR 0

O=C(CCl)c1c[nH]c2ccccc12 (2.5 µM)
inactive: EGFR 0 | EGFR_G719S 0 | EGFR_G719S_T790M 0 | EGFR_L718V 0 | EGFR_L858R 0 | EGFR_L861Q 0 | EGFR_T790M 0 | EPHA2 = 0 | ERBB3 = 0 | [1] 0 | ERN1 = 0 | FGFR1 = 0 | FGFR2 = 0 | FGFR3 = 0 | FGR 0 | FLT3 = 0 | FYN 0 | GSK3A 0 | HER2 = 0 | INSRR 0

CNC(=O)CN1CCC(Oc2cc3c(Nc4cccc(Cl)c4F)ncnc3cc2OC)CC1 [Sapitinib] (10 µM)
inactive: EGFR 0 | EGFR_G719S 0 | EGFR_G719S_T790M 0 | EGFR_L718V 0 | EGFR_L858R 0 | EGFR_L861Q 0 | EGFR_T790M 0 | EPHA2 = 0 | ERBB3 = 0 | [1] 0 | ERN1 = 0 | FGFR1 = 0 | FGFR2 = 0 | FGFR3 = 0 | FGR 0 | FLT3 = 0 | FYN 0 | GSK3A 0 | HER2 = 0 | INSRR 0

Nc1nc(Nc2ccc3c(c2)CC[C@@H](N2CCCC2)CC3)nn1-c1cc2c(nn1)-c1ccccc1CCC2 [Bemcentinib] (2.5 µM)
inactive: EGFR 0 | EGFR_G719S 0 | EGFR_G719S_T790M 0 | EGFR_L718V 0 | EGFR_L858R 0 | EGFR_L861Q 0 | EGFR_T790M 0 | EPHA2 = 0 | ERBB3 = 0 | [1] 0 | ERN1 = 0 | FGFR1 = 0 | FGFR2 = 0 | FGFR3 = 0 | FGR 0 | FLT3 = 0 | FYN 0 | GSK3A 0 | HER2 = 0 | INSRR 0

O=C(Nc1ccc(F)cc1F)C(NC(=S)Nc1cc(C(F)(F)F)cc(C(F)(F)F)c1)c1ccccc1 (racemic) (2.5 µM)
inactive: EGFR 0 | EGFR_G719S 0 | EGFR_G719S_T790M 0 | EGFR_L718V 0 | EGFR_L858R 0 | EGFR_L861Q 0 | EGFR_T790M 0 | EPHA2 = 0 | ERBB3 = 0 | [1] 0 | ERN1 = 0 | FGFR1 = 0 | FGFR2 = 0 | FGFR3 = 0 | FGR 0 | FLT3 = 0 | FYN 0 | GSK3A 0 | HER2 = 0 | INSRR 0

NC(=O)c1c(NC(=O)C2CC2)sc2c1CCCC2 (10 µM)
inactive: EGFR 0 | EGFR_G719S 0 | EGFR_G719S_T790M 0 | EGFR_L718V 0 | EGFR_L858R 0 | EGFR_L861Q 0 | EGFR_T790M 0 | EPHA2 = 0 | ERBB3 = 0 | [1] 0 | ERN1 = 0 | FGFR1 = 0 | FGFR2 = 0 | FGFR3 = 0 | FGR 0 | FLT3 = 0 | FYN 0 | GSK3A 0 | HER2 = 0 | INSRR 0
